The results in this text go back to PubChem BioAssay AID1508600 (Functional Genomics Laboratory (NCATS/FGL), 2020).

The whole screen tested about 53,000 sequences, of which about 3,700 (7%) were called active.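 The calls were made as follows: active = gene knockdowns whose robust z-score for IL-1 alpha signal is at least 2 or at most -2, so actives lie on both sides; inactive = the rest.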 The list shows a part of the results.

A short description of the assay: Components of the Cytosolic LPS Sensing Pathway: Gene Identification via Genome-wide siRNA Screen.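 Also: robust z of the log signal after scaling to non-targeting control siRNA wells of the plate.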 The note with it: RAW264.7 macrophages, IL-1a HTRF, actives lie on both sides, screened at 100 nM (by protocol), cells primed 5 h with Pam3CSK4 first. The gist of the method: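 RAW264.7 mouse macrophages reverse-transfected with single siRNAs (100 nM final) for 48h, primed with Pam3CSK4 for 5 hours, then transfected with LipidA for 24 hour. Supernatant IL-1a read by HTRF; values normalized to negative-control median, log-transformed robust z-scores.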
Background: Time-resolved FRET reads energy transfer from a long-lived donor to a nearby acceptor.
As for GGGAAGCAGUGCUUCUUAGTT against Dars, the z-score was inactive: -0.216.
The same measure for CCACAUCUAAAGUUCAAGATT against Tab2: inactive: -0.0772.
The same measure for GGUCUCCUGUGGAAAUAUCTT against Olfr659: inactive: 0.342; for GGAAACUGUGUCAUUAUUATT against Arhgap9: inactive: -0.402.
Next, GGACAACAUGAACUGUCAGTT against Snrpd3: active: -2.74; GCAGGUACAAAUCUACUACTT against Myo7b: inactive: 0.908; CCUCUAAGUAUAUCUUGGATT against Jmjd1c: inactive: 0.98.
With GGUAAAGAGAGAUCCAUCCTT against Pphln1, the z-score is inactive: 0.307.
On to GCAGGAGUCACCAUACUACTT against Poglut3, for which the z-score was inactive: 1.67.
Next, GCGAUGGAAACUGAAAUGCTT against Kdm4b: inactive: -0.271; GGAAAAUGGAAUCUUCGGUTT against Pus10: inactive: -1.4; GCUCAAUGUGACAGUGGUGTT against Elane: inactive: 0.38.
The same measure for CGAGCCAUACCUUCAACUGTT against Ncoa2: inactive: -0.815.
In the case of GCACACUGAAGUGUUUGUATT against Gorasp1, the z-score was inactive: 1.17.
As to GGAGGGAAUAUGCAAAUAGTT against Ftdc2, the z-score is active: 2.36.
As to GGUGGAAGACUUCAGUGAATT against Clgn, the z-score is inactive: 0.384.
The same measure for GGUUCUCUUUGAAGAAACUTT against Amotl2: inactive: 0.0977; for GGGAAACUAUUCUAGACGCTT against H2al2a: inactive: -0.0147; for GCUUGUCCAAUGCCUAUUCTT against Alg14: inactive: -0.268.
On to GGACUUGCCACCCAGGAAATT against Apba3, for which the z-score is inactive: -0.175.
Take GGAGUGCUGUAUUUUUGUATT against Gpr68: the z-score is inactive: 0.745.
In the case of GGUCGUUGCCAACAUUGCUTT against Slc28a1, the z-score was inactive: -1.1.
GGGUGAUGUGUGACAAUGUTT against Wnt2: the z-score is inactive: 0.0823.
Regarding GCCCUAAUUGACUAUGAGATT against Snx5, the z-score was inactive: 0.147.
For the sequence CCCUAAAUCCAAAAAGGGCTT against Pik3r5, the z-score is inactive: -0.678.
On to GCUGGAUGGAGGCAAAGCATT against C1ql1, for which the z-score is inactive: -1.38.
In the case of GGCUCUGACAGACAAUGGATT against Dpt, the z-score was inactive: -0.565.
Next, GGGACUGUUUCUGUUAAUUTT against Esyt3: inactive: 0.214; GGUCAUUCAAGAGAUACUATT against Dennd10: inactive: -0.65; CCAUUACCUUACCCUCCGATT against Scnm1: inactive: 0.607.
As for GGUUAAUCAUCUAGAUUACTT against Dnaaf6b, the z-score is inactive: 1.16.
The same measure for GUCAAAAAGCAAGAAGCCUTT against Etd: inactive: -1.24.
The same measure for GCCCAGACUACCAUGCUUATT against Gm5535: inactive: -0.873; for CGGAACCUUACAUUAAAUGTT against Tada2a: inactive: 0.11.
As for GGACCACUCUGAAUAAGACTT against Ttc12, the z-score is inactive: -1.3.
Next, GGAAGGUGGACAGAUUGCATT against Pfkfb3: inactive: -0.981; GGAAGAGAAAGGCAAAAAGTT against Nckap5: inactive: 0.616; GCAUUUUUGAACAAACUUGTT against Ankar: inactive: -0.406.
Next, GGAGCGAGGUACAACUGAATT against Mb21d2: inactive: 0.336.
For the sequence GGAGCUCAACAAGUUGCUUTT against H2ac1, the z-score was inactive: 0.465.
The same measure for CCAUCAUGGCCUUAUCCGUTT against Rfx1: inactive: -0.635; for GGAAAACCUAGAGAAGCUGTT against Mast1: inactive: -0.56.
With GGACUUCAGCCUCAUCCUGTT against Phb2, the z-score is inactive: -0.499.
Consider GGCUUGAGUCCUGAGACCATT against Ifna11, for which the z-score is inactive: 0.686.
Next, GGUAAAUGAGUAGCUUAGUTT against Baiap2l1: inactive: -0.566.
Regarding GGUAAAGUUCAAGUUAAGATT against Atp9b, the z-score is inactive: 0.407.
Take GGCUAGAGACUUGGUUUUUTT against Nrros: the z-score was inactive: 1.96.
As for GGAGUCUUGUAAUGAGCUUTT against Zfp54, the z-score is inactive: 0.898.
Take GCAGCAUAUAGAAAACCUATT against Nr1h5: the z-score is inactive: 0.0263.
The same measure for GGAUGUAUGAUGCAGUUAUTT against Olfr1211: inactive: 1.89; for “CCCAGGUAGAGACAUUGCUTT against 6330444E15Rik”: inactive: -1.89.
On to GGGCUCUGCUAGUUCAAUATT against Lpp, for which the z-score is inactive: 0.936.
Regarding GGUUCUUUGUUACUCUAAGTT against Gabrb3, the z-score is inactive: -0.437.
GGAUCUUUUCAGGUUCUAATT against Olfr659: the z-score was inactive: 0.377.
Take GCAGAGAGAGCGUGAAUCCTT against AB124611: the z-score was inactive: 0.598.
The same measure for GCUGAGAGUGAACCGAUGUTT against Dyrk4: inactive: 1.54.
Take GCUAAAAGGCUACGGGAGUTT against Bhlhe23: the z-score was inactive: -0.266.
In the case of GCUGGACAUCAAUACGGUGTT against Oplah, the z-score was inactive: 0.206.
The same measure for GCCUUCUGAUAAUAUUAUGTT against Vps13b: inactive: 0.0712.
The same measure for GGGCAUUGUUGUUUCUAUUTT against Lhfp: inactive: -0.0841; for GGAUGCUCAACACUACGCUTT against Avp: inactive: 0.341; for GGCAAACAAAACAAACUGATT against Tram1l1: inactive: -0.967.
Take GGAGCUCCUCUGAAUGCUCTT against Arhgef15: the z-score was inactive: -1.66.
GCUAUGACUCCAACAUGCGTT against Jaml: the z-score was inactive: 0.0115.
GGAGUGUUUAAAUAUAGCCTT against Mtmr9: the z-score was inactive: 0.529.
For the sequence CCGAAAUGGACAUAUCAUUTT against Trim3, the z-score was inactive: 0.102.
AACAUUGUAUAUCUCUCAUTT against Saa1: the z-score is inactive: 1.14.
Next, GGAACAAACCUUCAUUUAGTT against Osbp2: inactive: 0.28; GCCCUCAAUAACUAUGUACTT against Il2: inactive: -0.389; GUGUCUCUGUACUUAUUAUTT against Olfr483: inactive: 0.69.
Take GGAUGAAAAUCAAUUCUCCTT against Nusap1: the z-score is inactive: 0.693.
For GGACCUAAGAAACUGCUUATT against Ccr7, the z-score was inactive: 0.716.
As to GGGAUUGUAUGAGUGCACATT against Coa4, the z-score is inactive: 0.657.
Regarding “GGCAGAGCCUGGAUUUAUCTT against 2610524H06Rik”, the z-score was inactive: -0.582.
For the sequence GGCUGAGCACAAUAAUCCCTT against Ndufs7, the z-score is inactive: -0.657.
As to GGUCAACUCCUUUAUGAGCTT against Apoa4, the z-score was inactive: -0.238.
The same measure for GGAACCACAUGGACACACUTT against Tmem251: inactive: -0.146.
Take GGUGGUUUAAGAAAUCAAATT against Dolpp1: the z-score was inactive: 0.34.
Turning to CCGAGCAAAAUCUCAAAUUTT against Mdh1, the z-score is inactive: 1.89.
As to CGUGAAAUAAACAGUCUGATT against Ranbp2, the z-score was inactive: -0.166.
Consider GGGAAGAAGAAGAAUUUUGTT against Ubap2, for which the z-score is inactive: -0.389.
Consider GGUAUGUCCUCUGGUCAAUTT against Bpifa1, for which the z-score is inactive: 0.282.
For GCGGUAAUAUCUACGAAGATT against Ina, the z-score is inactive: 0.886.
GGAGUUCCAGAAGCUUCUATT against Vwa3b: the z-score was inactive: -1.72.
For the sequence GCCCUCUUAUCUGAAUAAUTT against Stk17b, the z-score is active: 2.19.
As to GGAAGAUCUACAUCGUGGGTT against Klhl26, the z-score is inactive: 0.341.
Turning to GCGACUAUUUUGAAUACCATT against Tlk1, the z-score was inactive: -0.449.
For the sequence GGCUUAAAAUGUUAGUGAATT against Tspan11, the z-score is inactive: 1.5.
For the sequence GCUAGCAUAACUUCAGCUATT against Trim45, the z-score was inactive: 0.502.
As for GGUGUCAUCAAGUUGAAAATT against Mcrs1, the z-score is inactive: -1.12.
Turning to GGGCCAACUCAAAACAAAATT against Wdr37, the z-score was inactive: -0.74.
The same measure for CGCGUCUCUACAAAAACAUTT against Impa2: inactive: 0.408.
With GGAGAUCACAGAAAAAACCTT against Colec12, the z-score was inactive: 0.28.
For the sequence GCUCCGAAAGACUAGAUACTT against Spag8, the z-score is inactive: -0.339.
Take GCCCUAUCAACACUUGGGATT against Prrxl1: the z-score was inactive: -0.224.
Regarding GCACACCAACAAUGCUUUCTT against Tmem86a, the z-score is inactive: -0.313.
Next, “GGAGAUGGAUUUUUCUACUTT against F830045P16Rik”: inactive: 0.291; GGAAGAGUGAUGGUUUUAATT against Tollip: inactive: 1.2.
CGCACAUCCUGAAUAUACATT against Drd2: the z-score was inactive: -0.483.
Consider CGCAAUGGAAGUCUAUCUUTT against Zdhhc5, for which the z-score was inactive: 0.699.
The same measure for GGCUGUGUUGAGUUUUCACTT against Abcg3: inactive: 1.23; for GCAGCAUCGCUAUGUCCUGTT against Ccl26: inactive: 0.182; for GGGCUUUGUUUCCAAGUUGTT against Muc15: inactive: -0.285.
For the sequence GGUAAGUUUGGGAACAUUGTT against Septin12, the z-score is inactive: 0.528.
GGACAUCAAUUCAACAGUUTT against Lifr: the z-score is inactive: -0.361.
Turning to CCAUUCCCGCAUCCAUGUGTT against Zfp672, the z-score is active: -2.23.
As for GGAGUCAAGUCCACAUACATT against Usp47, the z-score is inactive: -0.027.
